This is one part of the list. Only hits are listed; about a third recur on repeated control peptides.
Experiments:
Experiment in all cases: PRISMA enrichment of interactor (LFQ) in peptide spot vs all other peptide spots (log2 fold change); higher = stronger / more specific binding of the interactor to the peptide
GTF3C2, Q8WUA4 = molecular target: GTF3C2, Q8WUA4
Experimental: (§1)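 PRISMA: 15-aa overlapping tiles (offset 8 aa) of 60 microproteins, plus SOS1/GLUT1 control peptides, were spot-synthesized on cellulose membranes in triplicate. Membranes were incubated with benzonase-treated HEK293T lysate, and bound proteins were identified by LC-MS/MS with LFQ. Enrichment is the log2 fold change of each protein in one spot versus all other spots. Only interactors passing the significance cutoff are listed.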

By UniProt entry, the sequences of proteins in these tests, tags left out.
SELENOI, Q9C0D9, UniProt Q9C0D9, whole entry: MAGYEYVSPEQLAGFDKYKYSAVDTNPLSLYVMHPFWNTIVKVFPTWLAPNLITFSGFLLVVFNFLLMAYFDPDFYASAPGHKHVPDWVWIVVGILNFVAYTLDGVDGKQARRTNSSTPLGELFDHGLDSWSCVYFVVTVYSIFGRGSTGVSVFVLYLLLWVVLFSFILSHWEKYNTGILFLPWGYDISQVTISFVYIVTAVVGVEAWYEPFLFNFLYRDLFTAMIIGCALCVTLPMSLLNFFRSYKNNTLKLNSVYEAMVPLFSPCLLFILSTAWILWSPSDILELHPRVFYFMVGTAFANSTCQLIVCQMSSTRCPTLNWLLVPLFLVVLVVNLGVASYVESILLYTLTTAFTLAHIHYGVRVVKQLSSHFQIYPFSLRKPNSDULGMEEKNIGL
RBBP5, Q15291, UniProt Q15291, whole entry: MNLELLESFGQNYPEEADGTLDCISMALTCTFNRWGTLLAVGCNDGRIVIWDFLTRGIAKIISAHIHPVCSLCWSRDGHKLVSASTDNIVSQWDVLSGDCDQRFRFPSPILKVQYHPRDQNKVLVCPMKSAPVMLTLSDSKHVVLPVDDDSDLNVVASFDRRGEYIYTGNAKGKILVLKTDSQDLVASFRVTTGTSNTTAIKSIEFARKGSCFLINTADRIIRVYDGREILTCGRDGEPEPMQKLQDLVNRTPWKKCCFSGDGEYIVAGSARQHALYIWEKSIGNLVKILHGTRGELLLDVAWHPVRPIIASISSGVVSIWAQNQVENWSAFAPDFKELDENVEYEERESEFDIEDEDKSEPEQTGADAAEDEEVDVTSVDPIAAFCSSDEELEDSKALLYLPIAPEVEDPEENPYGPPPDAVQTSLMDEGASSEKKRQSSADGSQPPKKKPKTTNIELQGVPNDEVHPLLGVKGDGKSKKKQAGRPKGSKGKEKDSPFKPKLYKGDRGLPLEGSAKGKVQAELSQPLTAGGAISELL
INTS2, Q9H0H0, UniProt Q9H0H0, whole entry: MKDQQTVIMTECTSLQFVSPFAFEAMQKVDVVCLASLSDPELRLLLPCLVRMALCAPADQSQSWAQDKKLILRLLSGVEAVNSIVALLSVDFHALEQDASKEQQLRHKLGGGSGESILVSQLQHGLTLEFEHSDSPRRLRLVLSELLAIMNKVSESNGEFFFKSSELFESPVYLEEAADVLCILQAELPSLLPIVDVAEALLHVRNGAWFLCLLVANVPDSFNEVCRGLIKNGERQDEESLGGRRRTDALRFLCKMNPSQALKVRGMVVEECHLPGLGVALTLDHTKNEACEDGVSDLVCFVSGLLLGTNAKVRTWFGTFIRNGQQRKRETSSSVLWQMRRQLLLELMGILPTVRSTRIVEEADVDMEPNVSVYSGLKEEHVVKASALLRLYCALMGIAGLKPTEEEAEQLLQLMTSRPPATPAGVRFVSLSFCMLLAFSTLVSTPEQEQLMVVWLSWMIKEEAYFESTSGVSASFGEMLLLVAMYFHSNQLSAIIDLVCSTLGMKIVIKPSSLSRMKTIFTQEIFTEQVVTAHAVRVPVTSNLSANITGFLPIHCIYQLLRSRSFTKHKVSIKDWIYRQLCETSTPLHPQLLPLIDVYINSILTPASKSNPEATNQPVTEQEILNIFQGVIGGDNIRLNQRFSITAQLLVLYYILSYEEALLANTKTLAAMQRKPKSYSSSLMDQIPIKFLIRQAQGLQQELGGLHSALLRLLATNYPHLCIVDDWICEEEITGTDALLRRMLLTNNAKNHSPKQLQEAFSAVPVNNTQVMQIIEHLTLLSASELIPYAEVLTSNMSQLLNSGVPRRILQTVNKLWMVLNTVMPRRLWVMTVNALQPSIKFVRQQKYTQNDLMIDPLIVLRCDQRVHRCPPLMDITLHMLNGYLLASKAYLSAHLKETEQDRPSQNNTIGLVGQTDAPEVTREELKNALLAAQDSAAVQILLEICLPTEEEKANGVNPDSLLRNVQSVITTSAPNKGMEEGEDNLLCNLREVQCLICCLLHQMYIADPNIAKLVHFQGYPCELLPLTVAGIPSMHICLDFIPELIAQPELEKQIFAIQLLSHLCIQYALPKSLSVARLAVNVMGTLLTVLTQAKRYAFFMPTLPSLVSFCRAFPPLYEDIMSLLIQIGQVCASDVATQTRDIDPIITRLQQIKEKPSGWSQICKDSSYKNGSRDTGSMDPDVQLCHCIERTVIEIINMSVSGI
MYH9, P35579, UniProt P35579, whole entry: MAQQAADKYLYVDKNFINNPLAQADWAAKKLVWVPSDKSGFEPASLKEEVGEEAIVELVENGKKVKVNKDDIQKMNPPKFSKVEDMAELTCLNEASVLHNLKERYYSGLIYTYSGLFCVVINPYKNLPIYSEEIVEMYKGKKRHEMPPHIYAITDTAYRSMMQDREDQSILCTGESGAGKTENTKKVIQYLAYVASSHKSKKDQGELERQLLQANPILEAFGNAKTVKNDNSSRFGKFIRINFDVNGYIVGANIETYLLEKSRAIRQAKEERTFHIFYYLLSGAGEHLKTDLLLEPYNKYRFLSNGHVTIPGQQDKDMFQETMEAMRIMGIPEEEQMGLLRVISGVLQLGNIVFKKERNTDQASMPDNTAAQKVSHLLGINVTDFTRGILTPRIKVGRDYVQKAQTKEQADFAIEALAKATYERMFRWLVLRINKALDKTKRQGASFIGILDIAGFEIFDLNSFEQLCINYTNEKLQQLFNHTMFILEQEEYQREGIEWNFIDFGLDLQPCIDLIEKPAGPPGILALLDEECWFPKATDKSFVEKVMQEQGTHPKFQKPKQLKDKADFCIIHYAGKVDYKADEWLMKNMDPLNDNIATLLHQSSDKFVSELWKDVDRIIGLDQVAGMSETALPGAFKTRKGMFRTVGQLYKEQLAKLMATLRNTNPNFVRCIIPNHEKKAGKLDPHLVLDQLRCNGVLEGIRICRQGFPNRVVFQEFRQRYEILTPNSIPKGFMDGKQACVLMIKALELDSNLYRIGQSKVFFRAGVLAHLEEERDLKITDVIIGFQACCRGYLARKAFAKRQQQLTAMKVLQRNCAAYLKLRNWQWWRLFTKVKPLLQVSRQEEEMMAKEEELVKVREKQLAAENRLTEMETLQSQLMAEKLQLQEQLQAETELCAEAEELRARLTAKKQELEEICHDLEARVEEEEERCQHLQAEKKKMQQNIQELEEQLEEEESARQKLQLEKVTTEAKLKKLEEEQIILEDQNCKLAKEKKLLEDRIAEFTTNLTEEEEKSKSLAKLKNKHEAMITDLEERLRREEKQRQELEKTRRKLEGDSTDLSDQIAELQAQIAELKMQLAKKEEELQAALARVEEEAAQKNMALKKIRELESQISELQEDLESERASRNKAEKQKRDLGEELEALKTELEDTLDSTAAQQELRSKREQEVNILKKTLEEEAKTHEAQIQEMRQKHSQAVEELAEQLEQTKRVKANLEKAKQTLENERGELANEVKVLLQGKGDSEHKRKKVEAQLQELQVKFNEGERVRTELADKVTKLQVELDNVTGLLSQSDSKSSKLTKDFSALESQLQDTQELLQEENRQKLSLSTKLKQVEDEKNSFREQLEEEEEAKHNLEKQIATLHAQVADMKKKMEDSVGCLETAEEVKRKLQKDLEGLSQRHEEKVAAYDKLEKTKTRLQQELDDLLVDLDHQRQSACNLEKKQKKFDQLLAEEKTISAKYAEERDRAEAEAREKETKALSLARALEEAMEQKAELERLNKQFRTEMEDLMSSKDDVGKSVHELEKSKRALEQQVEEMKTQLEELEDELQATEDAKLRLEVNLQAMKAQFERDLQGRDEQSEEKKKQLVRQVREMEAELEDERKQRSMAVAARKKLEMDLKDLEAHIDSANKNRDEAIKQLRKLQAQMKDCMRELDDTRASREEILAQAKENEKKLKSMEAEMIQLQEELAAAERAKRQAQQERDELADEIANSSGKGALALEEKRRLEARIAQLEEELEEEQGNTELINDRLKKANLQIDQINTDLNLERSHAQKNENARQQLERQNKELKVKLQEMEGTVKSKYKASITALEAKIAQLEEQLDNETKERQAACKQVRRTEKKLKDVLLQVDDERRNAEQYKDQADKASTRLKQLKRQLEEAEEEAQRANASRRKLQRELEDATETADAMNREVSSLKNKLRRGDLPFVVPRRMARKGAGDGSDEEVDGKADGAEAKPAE
MTPN, P58546, UniProt P58546, whole entry: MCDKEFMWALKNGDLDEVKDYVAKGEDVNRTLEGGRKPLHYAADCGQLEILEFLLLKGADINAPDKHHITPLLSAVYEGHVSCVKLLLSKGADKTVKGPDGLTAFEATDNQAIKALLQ
NDUFA6, P56556, UniProt P56556, whole entry: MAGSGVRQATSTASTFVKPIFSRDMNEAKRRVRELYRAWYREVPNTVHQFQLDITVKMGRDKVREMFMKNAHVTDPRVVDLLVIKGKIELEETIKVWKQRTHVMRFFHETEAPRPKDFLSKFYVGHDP
NDUFB9, Q9Y6M9, UniProt Q9Y6M9, whole entry: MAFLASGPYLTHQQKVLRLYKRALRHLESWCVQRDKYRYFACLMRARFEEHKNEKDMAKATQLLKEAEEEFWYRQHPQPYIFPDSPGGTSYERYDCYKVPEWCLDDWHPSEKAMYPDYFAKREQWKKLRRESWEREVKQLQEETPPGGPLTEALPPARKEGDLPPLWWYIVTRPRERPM
PHAX, Q9H814, UniProt Q9H814, whole entry: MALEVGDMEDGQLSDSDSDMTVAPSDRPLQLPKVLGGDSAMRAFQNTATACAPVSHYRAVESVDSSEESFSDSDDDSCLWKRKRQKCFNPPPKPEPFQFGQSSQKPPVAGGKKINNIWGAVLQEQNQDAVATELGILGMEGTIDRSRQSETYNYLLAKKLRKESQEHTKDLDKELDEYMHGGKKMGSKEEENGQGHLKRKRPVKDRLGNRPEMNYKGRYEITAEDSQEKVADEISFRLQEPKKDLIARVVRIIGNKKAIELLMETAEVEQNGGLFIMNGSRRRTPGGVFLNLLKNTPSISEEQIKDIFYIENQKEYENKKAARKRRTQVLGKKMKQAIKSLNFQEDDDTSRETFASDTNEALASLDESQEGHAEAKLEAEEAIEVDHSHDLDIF
SYCP2, Q9BX26, UniProt Q9BX26, whole entry: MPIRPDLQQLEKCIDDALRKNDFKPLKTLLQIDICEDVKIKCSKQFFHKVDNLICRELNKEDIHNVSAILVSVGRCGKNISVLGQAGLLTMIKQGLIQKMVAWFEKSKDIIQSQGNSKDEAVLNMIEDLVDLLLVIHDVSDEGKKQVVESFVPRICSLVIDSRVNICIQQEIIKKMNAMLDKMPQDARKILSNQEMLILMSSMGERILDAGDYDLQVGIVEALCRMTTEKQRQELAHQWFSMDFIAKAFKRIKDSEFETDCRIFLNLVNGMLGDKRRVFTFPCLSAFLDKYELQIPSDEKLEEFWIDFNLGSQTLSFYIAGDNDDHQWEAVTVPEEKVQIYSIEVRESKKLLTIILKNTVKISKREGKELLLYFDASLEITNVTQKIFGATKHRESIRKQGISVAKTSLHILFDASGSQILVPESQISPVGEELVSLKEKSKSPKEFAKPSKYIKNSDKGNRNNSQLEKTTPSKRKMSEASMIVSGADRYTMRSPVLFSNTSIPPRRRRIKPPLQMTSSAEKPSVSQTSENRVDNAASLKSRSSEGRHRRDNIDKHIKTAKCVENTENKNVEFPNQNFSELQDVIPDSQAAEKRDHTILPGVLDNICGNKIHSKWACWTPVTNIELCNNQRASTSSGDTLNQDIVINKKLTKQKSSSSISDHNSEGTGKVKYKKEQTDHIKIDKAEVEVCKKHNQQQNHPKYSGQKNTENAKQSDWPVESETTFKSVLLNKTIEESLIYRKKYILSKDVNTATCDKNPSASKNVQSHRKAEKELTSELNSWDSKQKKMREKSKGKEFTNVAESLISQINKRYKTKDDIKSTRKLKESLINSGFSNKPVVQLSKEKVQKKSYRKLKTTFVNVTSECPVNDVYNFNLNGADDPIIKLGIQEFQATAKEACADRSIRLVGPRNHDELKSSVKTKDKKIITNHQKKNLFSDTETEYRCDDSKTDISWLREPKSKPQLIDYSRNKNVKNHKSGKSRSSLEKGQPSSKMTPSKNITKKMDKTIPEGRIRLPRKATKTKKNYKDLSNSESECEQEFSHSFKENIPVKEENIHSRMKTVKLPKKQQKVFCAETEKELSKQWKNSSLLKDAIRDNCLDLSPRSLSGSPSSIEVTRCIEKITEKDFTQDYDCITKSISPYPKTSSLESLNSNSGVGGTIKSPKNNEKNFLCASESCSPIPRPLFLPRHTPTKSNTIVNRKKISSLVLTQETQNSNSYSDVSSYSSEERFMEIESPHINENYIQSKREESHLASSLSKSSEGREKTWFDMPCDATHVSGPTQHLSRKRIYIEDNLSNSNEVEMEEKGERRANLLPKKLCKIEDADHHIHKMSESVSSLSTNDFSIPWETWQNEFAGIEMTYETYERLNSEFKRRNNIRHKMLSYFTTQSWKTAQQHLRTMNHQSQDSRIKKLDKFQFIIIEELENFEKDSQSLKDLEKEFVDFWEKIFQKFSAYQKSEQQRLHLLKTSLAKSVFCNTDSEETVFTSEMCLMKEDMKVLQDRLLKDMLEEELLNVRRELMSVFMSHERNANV
NME1, P15531, UniProt P15531, whole entry: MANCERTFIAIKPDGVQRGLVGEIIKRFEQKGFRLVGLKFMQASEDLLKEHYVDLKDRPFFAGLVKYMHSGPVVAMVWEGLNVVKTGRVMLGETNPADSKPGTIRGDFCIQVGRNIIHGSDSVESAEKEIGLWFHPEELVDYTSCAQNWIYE

SELENOI, Q9C0D9 = molecular target: SELENOI, Q9C0D9
Experimental: as §1

YIF1B, Q5BJH7 = molecular target: YIF1B, Q5BJH7
Experimental: as §1

HIST1H1E, P10412 = molecular target: HIST1H1E, P10412
Experimental: as §1

MARCKS, P29966 = molecular target: MARCKS, P29966
Experimental: as §1

ODF2, Q5BJF6 = molecular target: ODF2, Q5BJF6
Experimental: as §1

RBBP5, Q15291 = molecular target: RBBP5, Q15291
Experimental: as §1

ST13, P50502 = molecular target: ST13, P50502
Experimental: as §1

TAF15, Q92804 = molecular target: TAF15, Q92804
Experimental: as §1

HSPH1, Q92598 = molecular target: HSPH1, Q92598
Experimental: as §1

INTS2, Q9H0H0 = molecular target: INTS2, Q9H0H0
Experimental: as §1

IRAK1, P51617 = molecular target: IRAK1, P51617
Experimental: as §1

PSMB1, P20618 = molecular target: PSMB1, P20618
Experimental: as §1

RRP9, O43818 = molecular target: RRP9, O43818
Experimental: as §1

TTN, Q8WZ42 = molecular target: TTN, Q8WZ42
Experimental: as §1

URB1, O60287 = molecular target: URB1, O60287
Experimental: as §1

ZNF346, Q9UL40 = molecular target: ZNF346, Q9UL40
Experimental: as §1

ITCH, Q96J02 = molecular target: ITCH, Q96J02
Experimental: as §1

SHROOM3, Q8TF72 = molecular target: SHROOM3, Q8TF72
Experimental: as §1

LIMD2, Q9BT23 = molecular target: LIMD2, Q9BT23
Experimental: as §1

LSG1, Q9H089 = molecular target: LSG1, Q9H089
Experimental: as §1

MYH9, P35579 = molecular target: MYH9, P35579
Experimental: as §1

UBA1, P22314 = molecular target: UBA1, P22314
Experimental: as §1

MEPCE, Q7L2J0 = molecular target: MEPCE, Q7L2J0
Experimental: as §1

NOL6, Q9H6R4 = molecular target: NOL6, Q9H6R4
Experimental: as §1

SLC27A4, Q6P1M0 = molecular target: SLC27A4, Q6P1M0
Experimental: as §1

TAB1, Q15750 = molecular target: TAB1, Q15750
Experimental: as §1

MRM3, Q9HC36 = molecular target: MRM3, Q9HC36
Experimental: as §1

MTPN, P58546 = molecular target: MTPN, P58546
Experimental: as §1

VAPA, Q9P0L0 = molecular target: VAPA, Q9P0L0
Experimental: as §1

MRPL11, Q9Y3B7 = molecular target: MRPL11, Q9Y3B7
Experimental: as §1

NSUN5P2, Q63ZY6 = molecular target: NSUN5P2, Q63ZY6
Experimental: as §1

PIEZO2, Q9H5I5 = molecular target: PIEZO2, Q9H5I5
Experimental: as §1

PRPS1, P60891 = molecular target: PRPS1, P60891
Experimental: as §1

ZGRF1, Q86YA3 = molecular target: ZGRF1, Q86YA3
Experimental: as §1

MTX2, O75431 = molecular target: MTX2, O75431
Experimental: as §1

RUVBL1, Q9Y265 = molecular target: RUVBL1, Q9Y265
Experimental: as §1

NAA50, Q9GZZ1 = molecular target: NAA50, Q9GZZ1
Experimental: as §1

SIRT1, Q96EB6 = molecular target: SIRT1, Q96EB6
Experimental: as §1

SLAIN1, Q8ND83 = molecular target: SLAIN1, Q8ND83
Experimental: as §1

NAP1L1, P55209 = molecular target: NAP1L1, P55209
Experimental: as §1

NDUFA6, P56556 = molecular target: NDUFA6, P56556
Experimental: as §1

NDUFB9, Q9Y6M9 = molecular target: NDUFB9, Q9Y6M9
Experimental: as §1

PDCL3, Q9H2J4 = molecular target: PDCL3, Q9H2J4
Experimental: as §1

PHAX, Q9H814 = molecular target: PHAX, Q9H814
Experimental: as §1

SDE2, Q6IQ49 = molecular target: SDE2, Q6IQ49
Experimental: as §1

SYCP2, Q9BX26 = molecular target: SYCP2, Q9BX26
Experimental: as §1

NDUFB10, O96000 = molecular target: NDUFB10, O96000
Experimental: as §1

NME1, P15531 = molecular target: NME1, P15531
Experimental: as §1

NUP42, O15504 = molecular target: NUP42, O15504
Experimental: as §1

PFKL, P17858 = molecular target: PFKL, P17858
Experimental: as §1

PHF8, Q9UPP1 = molecular target: PHF8, Q9UPP1
Experimental: as §1

PELP1, Q8IZL8 = molecular target: PELP1, Q8IZL8
Experimental: as §1

TIMM23B, Q5SRD1 = molecular target: TIMM23B, Q5SRD1
Experimental: as §1

LLVGSGLGPFSGNIF
PRISMA enrichment of interactor (log2) (GTF3C2, Q8WUA4): 4.31
PRISMA enrichment of interactor (log2) (SELENOI, Q9C0D9): 3.85
PRISMA enrichment of interactor (log2) (YIF1B, Q5BJH7): 4.54

GSRRAFGAHGCRPEW [RP11-464C19.3]
PRISMA enrichment of interactor (log2) (HIST1H1E, P10412): 6.44
PRISMA enrichment of interactor (log2) (MARCKS, P29966): 6.71
PRISMA enrichment of interactor (log2) (ODF2, Q5BJF6): 8.85
PRISMA enrichment of interactor (log2) (RBBP5, Q15291): 4.49
PRISMA enrichment of interactor (log2) (ST13, P50502): 5.62
PRISMA enrichment of interactor (log2) (TAF15, Q92804): 5.06

MAGRLWRRSGEQKKG [RP11-644F5.11]
PRISMA enrichment of interactor (log2) (HSPH1, Q92598): 4.77

RARSWALRGARKPLR [SNHG6]
PRISMA enrichment of interactor (log2) (INTS2, Q9H0H0): 5.86

NGRSLFSIRQWTYRS [SNHG8_2]
PRISMA enrichment of interactor (log2) (IRAK1, P51617): 7.02
PRISMA enrichment of interactor (log2) (PSMB1, P20618): 5.83
PRISMA enrichment of interactor (log2) (RRP9, O43818): 4.64
PRISMA enrichment of interactor (log2) (TTN, Q8WZ42): 5.62
PRISMA enrichment of interactor (log2) (URB1, O60287): 6.36
PRISMA enrichment of interactor (log2) (ZNF346, Q9UL40): 4.09

SDVFFKGFKWGFAAF [NDUFB3]
PRISMA enrichment of interactor (log2) (ITCH, Q96J02): 5.63
PRISMA enrichment of interactor (log2) (SHROOM3, Q8TF72): 8.76

TPEELFHPLGADSQ [GLUT1_WT_3]
PRISMA enrichment of interactor (log2) (LIMD2, Q9BT23): 3.7

RREAGAAARRGVRRW
PRISMA enrichment of interactor (log2) (LSG1, Q9H089): 4.83
PRISMA enrichment of interactor (log2) (MYH9, P35579): 6.27
PRISMA enrichment of interactor (log2) (UBA1, P22314): 7.55

AIGWRLFLLLWHPAL [TUG1]
PRISMA enrichment of interactor (log2) (MEPCE, Q7L2J0): 5.9
PRISMA enrichment of interactor (log2) (NOL6, Q9H6R4): 5.83
PRISMA enrichment of interactor (log2) (SLC27A4, Q6P1M0): 5.62
PRISMA enrichment of interactor (log2) (TAB1, Q15750): 4.83
PRISMA enrichment of interactor (log2) (ZNF346, Q9UL40): 4.71

GAAAVWARAPRRCRA [RAB12]
PRISMA enrichment of interactor (log2) (MRM3, Q9HC36): 5.92
PRISMA enrichment of interactor (log2) (MTPN, P58546): 6.25
PRISMA enrichment of interactor (log2) (VAPA, Q9P0L0): 4.69

MDSTVILSCVRSKNL
PRISMA enrichment of interactor (log2) (MRPL11, Q9Y3B7): 3.61
PRISMA enrichment of interactor (log2) (NSUN5P2, Q63ZY6): 4.89
PRISMA enrichment of interactor (log2) (PIEZO2, Q9H5I5): 7.24
PRISMA enrichment of interactor (log2) (PRPS1, P60891): 3.65
PRISMA enrichment of interactor (log2) (ZGRF1, Q86YA3): 4.89

FQSRCKEHGKIKVLE [CRNDE]
PRISMA enrichment of interactor (log2) (MTX2, O75431): 3.48
PRISMA enrichment of interactor (log2) (RUVBL1, Q9Y265): 4.05

ENTEVQKKRRQEATH [RP11-12K22.1]
PRISMA enrichment of interactor (log2) (NAA50, Q9GZZ1): 6.79
PRISMA enrichment of interactor (log2) (SIRT1, Q96EB6): 4.7
PRISMA enrichment of interactor (log2) (SLAIN1, Q8ND83): 4.84

LRWKKRAVLPNHRLS [RP1-206D15.6]
PRISMA enrichment of interactor (log2) (NAP1L1, P55209): 6.23

TFRLLTLLPTIEKRR [CTD-2366F13.1]
PRISMA enrichment of interactor (log2) (NDUFA6, P56556): 6.16
PRISMA enrichment of interactor (log2) (NDUFB9, Q9Y6M9): 4.61
PRISMA enrichment of interactor (log2) (PDCL3, Q9H2J4): 8.45
PRISMA enrichment of interactor (log2) (PHAX, Q9H814): 4.89
PRISMA enrichment of interactor (log2) (SDE2, Q6IQ49): 5.46
PRISMA enrichment of interactor (log2) (SYCP2, Q9BX26): 8.17

RWRGEAGRREAGAAA
PRISMA enrichment of interactor (log2) (NDUFB10, O96000): 4.47
PRISMA enrichment of interactor (log2) (NME1, P15531): 4.82
PRISMA enrichment of interactor (log2) (NUP42, O15504): 4.47
PRISMA enrichment of interactor (log2) (PFKL, P17858): 4.52

MILPALKLLLFLKYV [HAND2-AS1]
PRISMA enrichment of interactor (log2) (PDCL3, Q9H2J4): 8.42
PRISMA enrichment of interactor (log2) (PHF8, Q9UPP1): 6.81

FSPSRAFRLHFCNIL [RP3-332B22.1]
PRISMA enrichment of interactor (log2) (PELP1, Q8IZL8): 4.57
PRISMA enrichment of interactor (log2) (TIMM23B, Q5SRD1): 6.13
